Results reported in publication PMC6517596.
Construct, isoform or probe ends are uncertain for at least one entry. For some assays here: Negatives hold for the conditions tested. For some assays here: A weaker result is weaker than the reference pair of the same experiment. For some assays here: At least one result comes from cells or an extract, where the contact may be indirect.

Chains of the proteins cited; added tags and fusions are not shown. A change or cut given only in a name is not applied to a line headed by its entry. A line that says so, or that is headed by a name, gives the form on record, which may keep a tag or linker.
UniProt O43474: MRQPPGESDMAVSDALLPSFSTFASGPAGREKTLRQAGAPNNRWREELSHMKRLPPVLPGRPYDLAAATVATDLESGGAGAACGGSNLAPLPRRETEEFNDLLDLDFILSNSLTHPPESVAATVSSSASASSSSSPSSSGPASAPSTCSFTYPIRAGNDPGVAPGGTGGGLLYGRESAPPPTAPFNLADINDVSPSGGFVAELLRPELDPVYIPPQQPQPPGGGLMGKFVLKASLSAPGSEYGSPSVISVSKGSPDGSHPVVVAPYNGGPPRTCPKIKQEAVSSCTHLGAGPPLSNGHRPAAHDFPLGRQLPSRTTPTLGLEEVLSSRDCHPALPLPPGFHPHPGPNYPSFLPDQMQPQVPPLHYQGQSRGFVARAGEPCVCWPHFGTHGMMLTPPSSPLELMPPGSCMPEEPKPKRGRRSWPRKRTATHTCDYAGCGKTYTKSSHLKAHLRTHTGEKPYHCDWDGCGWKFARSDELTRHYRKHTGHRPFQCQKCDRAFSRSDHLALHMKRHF
UniProt Q01714, whole entry: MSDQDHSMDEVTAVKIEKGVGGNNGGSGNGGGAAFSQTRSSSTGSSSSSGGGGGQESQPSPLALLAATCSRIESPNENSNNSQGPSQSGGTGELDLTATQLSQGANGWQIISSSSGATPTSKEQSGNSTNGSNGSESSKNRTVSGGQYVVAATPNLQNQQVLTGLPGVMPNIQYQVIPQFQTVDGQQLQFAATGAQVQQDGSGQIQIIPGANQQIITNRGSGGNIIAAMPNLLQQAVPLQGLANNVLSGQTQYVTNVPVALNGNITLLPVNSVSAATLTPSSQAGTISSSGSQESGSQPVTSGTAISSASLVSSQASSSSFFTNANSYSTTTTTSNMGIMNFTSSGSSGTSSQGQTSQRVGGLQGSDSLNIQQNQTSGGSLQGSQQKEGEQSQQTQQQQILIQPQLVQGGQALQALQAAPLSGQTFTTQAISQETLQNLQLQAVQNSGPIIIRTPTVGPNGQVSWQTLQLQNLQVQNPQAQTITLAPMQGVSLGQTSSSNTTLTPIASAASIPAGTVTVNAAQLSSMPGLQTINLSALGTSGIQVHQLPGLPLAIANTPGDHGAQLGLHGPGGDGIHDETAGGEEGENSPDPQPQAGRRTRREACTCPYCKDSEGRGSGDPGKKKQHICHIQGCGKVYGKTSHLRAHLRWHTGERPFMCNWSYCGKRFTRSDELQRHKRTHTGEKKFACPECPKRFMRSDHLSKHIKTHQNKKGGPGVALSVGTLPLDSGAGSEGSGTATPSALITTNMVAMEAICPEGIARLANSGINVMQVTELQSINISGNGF
Sp1 (Homo sapiens), one chain, as listed by the source: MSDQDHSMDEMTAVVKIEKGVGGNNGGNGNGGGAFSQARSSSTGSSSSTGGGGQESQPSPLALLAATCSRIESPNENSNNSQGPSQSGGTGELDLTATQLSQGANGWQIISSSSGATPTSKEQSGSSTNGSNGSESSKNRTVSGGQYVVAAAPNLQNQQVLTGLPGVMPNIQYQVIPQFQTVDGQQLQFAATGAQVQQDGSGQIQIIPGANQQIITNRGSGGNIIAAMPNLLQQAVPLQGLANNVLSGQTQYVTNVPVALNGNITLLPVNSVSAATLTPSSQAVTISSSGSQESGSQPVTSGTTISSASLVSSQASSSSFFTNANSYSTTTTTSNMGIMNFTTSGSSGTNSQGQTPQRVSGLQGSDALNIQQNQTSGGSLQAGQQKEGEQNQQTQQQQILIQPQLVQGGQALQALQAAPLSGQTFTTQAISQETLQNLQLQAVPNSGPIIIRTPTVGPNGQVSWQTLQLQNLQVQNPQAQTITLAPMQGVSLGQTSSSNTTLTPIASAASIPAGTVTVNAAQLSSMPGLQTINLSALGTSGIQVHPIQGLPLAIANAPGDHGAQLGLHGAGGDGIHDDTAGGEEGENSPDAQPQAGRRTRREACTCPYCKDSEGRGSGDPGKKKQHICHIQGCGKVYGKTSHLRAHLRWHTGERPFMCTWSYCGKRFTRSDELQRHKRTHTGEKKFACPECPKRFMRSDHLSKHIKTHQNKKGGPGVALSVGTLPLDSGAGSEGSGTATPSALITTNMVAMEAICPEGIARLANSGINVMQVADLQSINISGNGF

What was measured:
KLF4 (Homo sapiens) = KLF4 (Homo sapiens) (UniProt O43474); assay: EMSA; conditions: EMSA: 2 ug nuclear extract or 50 ng KLF4, 30 min on ice, 6% native PAGE, recombinant protein, label: 32P
[1] = target: Sp1 (VSMC nuclear extract) (UniProt Q01714); assay: EMSA; conditions: EMSA: 2 ug nuclear extract or 50 ng KLF4, 30 min on ice, 6% native PAGE; protein in an extract; label: 32P
[2] = target: Sp1 (VSMC nuclear extract) (UniProt Q01714); assay: EMSA supershift; conditions: EMSA: 2 ug nuclear extract or 50 ng KLF4, 30 min on ice, 6% native PAGE; protein in an extract; label: 32P
Sp1 (Homo sapiens) = assay: DPI-ELISA; conditions: 80 ng Sp1, displaced by KLF4; DPI-ELISA: 2 pmol biotin-DNA, 2 h; salt and pH not stated; recombinant protein; label: biotin

“CGCCCCCGGTGGCCCAAACCCGGCCATTAAGAT (double strand) [CPI-17 GC box 3 mutant]”: binds more weakly (KLF4 (Homo sapiens); legend: minimal binding, text: abolished); no binding [1].

“CGCCCCCGGTGGCCCCGCCCCGGCCATTAAGAT (double strand) [CPI-17 GC box 3 WT]”: binds [2]; binds (KLF4 (Homo sapiens)).

“GGCGATCGGGGAGGGAAAGGTCCCAGAGCACGA (double strand) [CPI-17 GC box 1 mutant]”: binds more weakly (KLF4 (Homo sapiens); mutation did not affect the minimal box 1 binding).

“GGCGATCGGGGAGGGGCGGGTCCCAGAGCACGA (double strand) [CPI-17 GC box 1 WT]”: binds more weakly (KLF4 (Homo sapiens); minimal binding, far less than boxes 2 and 3).

“GGTCCCAGAGCACGAGCCCCAAACCCCGGTGGCCCC (double strand) [CPI-17 GC box 2 mutant]”: no binding (KLF4 (Homo sapiens)); no binding [1].

“GGTCCCAGAGCACGAGCCCCCGCCCCCGGTGGCCCC (double strand) [CPI-17 GC box 2 WT]”: binds [2]; binds (KLF4 (Homo sapiens)).

“GGTCCCAGAGCACGAGCCCCCGCCCCCGGTGGCCCC (double strand) [CPI-17 GC box 2 biotinylated]”: binds (Sp1 (Homo sapiens)).
